Assay results reported in patent US7063861B2, “Bioavailable composition of natural and synthetic HCA” (Sabinsa Corporation, priority 2000, dated 2006).

Experiment: Oral administration of garcinol, HCA and combination: body weight, food and fluid consumption in SKH-1 mice
Assay type: in vivo
Conditions: 0.05% GAR, 1% HCA, Mean ± SE

Compound: O=C(O)CC(O)(C(=O)O)C(O)C(=O)O (centres unmarked) [HCA, 1,2-dihydroxypropane-1,2,3-tricarboxylic acid]
- Food consumption (5 weeks): 5.74 ± 0.13 gm/mouse/day
- Water consumption (5 weeks): 3.72 ± 0.08 ml/mouse/day
- Food consumption (7 weeks): 6.49 ± 0.07 gm/mouse/day
- Food consumption (10 weeks): 6.93 ± 0.21 gm/mouse/day
- Water consumption (10 weeks): 3.84 ± 0.09 ml/mouse/day
